Source: publication PMC5379069, “A Pseudomonas T6SS effector recruits PQS-containing outer membrane vesicles for iron acquisition” (Nature Communications, 2017)
Results are given in words; binding and its absence hold for the method and conditions named. For some of these results: Binding can be weak; no strength is given. For some of these results: Tags and fused reporters may be left off the sequences shown. For some of these results: In cells and extracts the contact can be indirect.

The chains behind the UniProt entries cited, without tags or fusion partners. Where a name states a change or a piece, a line headed by the entry shows the natural chain unless it says otherwise.
UniProt Q9I1A5: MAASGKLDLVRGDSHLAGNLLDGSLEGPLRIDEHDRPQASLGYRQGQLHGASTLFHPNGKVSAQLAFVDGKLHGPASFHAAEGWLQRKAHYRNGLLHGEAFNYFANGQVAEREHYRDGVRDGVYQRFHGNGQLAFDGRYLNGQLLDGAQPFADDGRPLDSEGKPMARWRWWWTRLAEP
UniProt Q9I1A6: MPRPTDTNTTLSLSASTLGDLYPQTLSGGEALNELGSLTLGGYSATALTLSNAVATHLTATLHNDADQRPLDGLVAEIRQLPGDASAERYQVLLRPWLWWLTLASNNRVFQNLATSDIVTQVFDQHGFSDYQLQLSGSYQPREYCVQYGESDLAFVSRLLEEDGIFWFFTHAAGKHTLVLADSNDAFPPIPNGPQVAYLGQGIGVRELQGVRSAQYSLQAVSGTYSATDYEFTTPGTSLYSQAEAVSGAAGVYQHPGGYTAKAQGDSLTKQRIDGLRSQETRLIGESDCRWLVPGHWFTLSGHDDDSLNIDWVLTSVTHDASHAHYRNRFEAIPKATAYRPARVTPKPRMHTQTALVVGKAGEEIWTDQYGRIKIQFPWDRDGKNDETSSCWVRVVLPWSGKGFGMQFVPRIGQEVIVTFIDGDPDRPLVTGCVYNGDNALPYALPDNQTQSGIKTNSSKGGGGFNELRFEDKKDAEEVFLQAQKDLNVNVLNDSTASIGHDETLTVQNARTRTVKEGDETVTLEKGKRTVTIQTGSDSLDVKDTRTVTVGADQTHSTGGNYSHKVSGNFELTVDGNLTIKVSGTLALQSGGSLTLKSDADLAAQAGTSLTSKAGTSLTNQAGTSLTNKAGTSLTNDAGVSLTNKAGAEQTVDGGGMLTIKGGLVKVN
UniProt Q9HVY9: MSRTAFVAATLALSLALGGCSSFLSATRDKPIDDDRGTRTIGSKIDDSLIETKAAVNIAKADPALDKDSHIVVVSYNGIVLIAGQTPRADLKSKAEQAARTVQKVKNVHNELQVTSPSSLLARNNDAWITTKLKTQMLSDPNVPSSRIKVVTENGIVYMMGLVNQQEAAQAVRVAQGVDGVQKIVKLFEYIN

Assays:
[1] = target: T1, PA0533 (Pseudomonas aeruginosa PAO1) (UniProt Q9I603); experiment: pull-down; only the target purified
T1 sequence: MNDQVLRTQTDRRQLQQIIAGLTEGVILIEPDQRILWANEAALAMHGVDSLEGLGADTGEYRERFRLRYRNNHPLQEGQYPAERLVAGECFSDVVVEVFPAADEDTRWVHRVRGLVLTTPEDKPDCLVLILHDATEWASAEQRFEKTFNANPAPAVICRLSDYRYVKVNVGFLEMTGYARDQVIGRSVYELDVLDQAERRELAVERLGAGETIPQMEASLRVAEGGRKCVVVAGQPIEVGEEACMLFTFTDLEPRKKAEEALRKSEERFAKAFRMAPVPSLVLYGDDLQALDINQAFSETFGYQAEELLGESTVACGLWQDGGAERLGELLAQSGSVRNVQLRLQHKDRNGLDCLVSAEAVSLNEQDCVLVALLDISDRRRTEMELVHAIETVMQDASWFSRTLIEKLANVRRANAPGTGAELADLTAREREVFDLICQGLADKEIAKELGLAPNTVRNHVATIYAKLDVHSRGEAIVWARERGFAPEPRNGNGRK

[2] = target: GST-TseF (Pseudomonas aeruginosa PAO1) (UniProt Q9I1A5); experiment: condition: 10 μg GST-fusion protein with 10 μg His-tagged protein; pull-down; 10 μg purified GST-fusion protein mixed with 10 μg His-tagged protein in PBS, 2 h at 4 °C; glutathione beads; washed five times with TEN buffer containing 500 mM NaCl; immunoblot; both purified
[3] = target: GST-TseF (Pseudomonas aeruginosa PAO1) (UniProt Q9I1A5); experiment: pull-down; 10 μg purified GST-fusion protein mixed with 10 μg His-tagged protein in PBS, 2 h at 4 °C; glutathione beads; washed five times with TEN buffer containing 500 mM NaCl; immunoblot; both purified

| Molecule | binding [3] | further results |
| --- | --- | --- |
| VgrG3-VSVG (from UniProt Q9I1A6) |  | binding [1]: no binding |
| PA4426 (recombinant) (from UniProt Q9HVY9) |  | binding [2]: no binding |
| His6-OprF (protein, UniProt P13794 25-350) QGQNSVEIEAFGKRYFTDSVRNMKNADLYGGSIGYFLTDDVELALSYGEYHDVRGTYETGNKKVHGNLTSLDAIYHFGTPGVGLRPYVSAGLAHQNITNINSDSQGRQQMTMANIGAGLKYYFTENFFAKASLDGQYGLEKRDNGHQGEWMAGLGVGFNFGGSKAAPAPEPVADVCSDSDNDGVCDNVDKCPDTPANVTVDANGCPAVAEVVRVQLDVKFDFDKSKVKENSYADIKNLADFMKQYPSTSTTVEGHTDSVGTDAYNQKLSERRANAVRDVLVNEYGVEGGRVNAVGYGESRPVADNATAEGRAINRRVEAEVEAEAK | binds |  |
| FptA_(1–186) (domain or fragment, UniProt P42512 39-186) DARKDGETELPDMVISGESTSATQPPGVTTLGKVPLKPRELPQSASVIDHERLEQQNLFSLDEAMQQATGVTVQPFQLLTTAYYVRGFKVDSFELDGVPALLGNTASSPQDMAIYERVEILRGSNGLLHGTGNPAATVNLVRKRPQRE | binds |  |
